Measured values published in doi:10.1101/2022.04.29.490031.
No constants are given. Whether binding was seen depends on the method and setting. Binding seen in cells or lysates may run through a third protein. Binding calls can cover weak binding; strength is not graded here.

By UniProt entry, the sequences of proteins in these tests, tags left out. Where a name states a change or a piece, a line headed by the entry shows the natural chain unless it says otherwise.
UniProt O15269: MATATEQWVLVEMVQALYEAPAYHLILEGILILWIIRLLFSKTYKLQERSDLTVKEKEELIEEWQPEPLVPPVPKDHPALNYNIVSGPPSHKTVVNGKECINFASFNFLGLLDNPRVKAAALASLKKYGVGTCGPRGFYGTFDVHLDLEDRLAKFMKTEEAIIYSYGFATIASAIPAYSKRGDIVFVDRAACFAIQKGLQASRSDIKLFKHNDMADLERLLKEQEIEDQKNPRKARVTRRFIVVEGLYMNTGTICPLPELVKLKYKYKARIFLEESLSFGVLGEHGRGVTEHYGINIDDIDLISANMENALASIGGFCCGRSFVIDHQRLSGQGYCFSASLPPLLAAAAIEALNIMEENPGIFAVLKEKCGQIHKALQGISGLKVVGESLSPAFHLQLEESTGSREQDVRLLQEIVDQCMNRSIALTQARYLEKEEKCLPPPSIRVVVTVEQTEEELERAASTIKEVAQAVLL

Target: SPTLC1^FLAG ex2del (ALS variant missing the whole of exon 2) (UniProt O15269)
Assay: co-IP

B1: SPTLC2 (serine-palmitoyltransferase subunit 2) (protein, UniProt O15270 1-562)
chain: MRPEPGGCCCRRTVRANGCVANGEVRNGYVRSSAAAAAAAAAGQIHHVTQNGGLYKRPFNEAFEETPMLVAVLTYVGYGVLTLFGYLRDFLRYWRIEKCHHATEREEQKDFVSLYQDFENFYTRNLYMRIRDNWNRPICSVPGARVDIMERQSHDYNWSFKYTGNIIKGVINMGSYNYLGFARNTGSCQEAAAKVLEEYGAGVCSTRQEIGNLDKHEELEELVARFLGVEAAMAYGMGFATNSMNIPALVGKGCLILSDELNHASLVLGARLSGATIRIFKHNNMQSLEKLLKDAIVYGQPRTRRPWKKILILVEGIYSMEGSIVRLPEVIALKKKYKAYLYLDEAHSIGALGPTGRGVVEYFGLDPEDVDVMMGTFTKSFGASGGYIGGKKELIDYLRTHSHSAVYATSLSPPVVEQIITSMKCIMGQDGTSLGKECVQQLAENTRYFRRRLKEMGFIIYGNEDSPVVPLMLYMPAKIGAFGREMLKRNIGVVVVGFPATPIIESRARFCLSAAHTKEILDTALKEIDEVGDLLQLKYSRHRLVPLLDRPFDETTYEETED
- binding: binds
